PubChem BioAssay AID1224830 | NIAID, 2016
Assay: 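Regulators of TLR4 signalling towards TNF-alpha in macrophage-like cells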 (primary screen). Cells: human THP-1 monocytic leukaemia cells, TNF dual-luciferase reporter clone, PMA-differentiated to macrophage-like cells. Reagents: siRNA pool against human genes, 50 nM. Timing: LPS for 4 h, given about 3 days after siRNA transfection. Challenge: bacterial LPS (TLR4 ligand), 10 ng/ml. Detection: 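Ratio of firefly to renilla light, scaled to the plate median and expressed as a robust z-score per replicate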. Direction: TNF reporter robust z-score: higher = stronger TNF reporter response to LPS. Hit rule: 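Each well counts as active if its z-score is over 2.8 or under -1.5; controls are left without a call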.
The whole screen tested about 18,000 reagents; this is a random part of them. About 2,900 of all reagents (16%) were called active. 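Calls are made per well; low scores hint the gene aids the LPS response, high scores that it dampens it.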 Entries without a mark were called inactive. Repeated entries: four replicate wells of each siRNA pool. No sequences are given here.

{"gene":"TRRAP (transformation/transcription domain associated protein)","TNF reporter robust z-score":-1.34}
{"gene":"TRRAP (transformation/transcription domain associated protein)","TNF reporter robust z-score":-0.13}
{"gene":"TRRAP (transformation/transcription domain associated protein)","TNF reporter robust z-score":-0.7}
{"gene":"TRRAP (transformation/transcription domain associated protein)","TNF reporter robust z-score":0.16}
{"gene":"TPSAB1 (tryptase alpha/beta 1)","TNF reporter robust z-score":-1.28}
{"gene":"TPSAB1 (tryptase alpha/beta 1)","TNF reporter robust z-score":-1.41}
{"gene":"TPSAB1 (tryptase alpha/beta 1)","TNF reporter robust z-score":-1.2}
{"gene":"TPSAB1 (tryptase alpha/beta 1)","TNF reporter robust z-score":-1.13}
{"gene":"SYNE1 (spectrin repeat containing nuclear envelope protein 1)","TNF reporter robust z-score":-0.49}
{"gene":"SYNE1 (spectrin repeat containing nuclear envelope protein 1)","TNF reporter robust z-score":-0.23}
{"gene":"SYNE1 (spectrin repeat containing nuclear envelope protein 1)","TNF reporter robust z-score":-0.32}
{"gene":"SYNE1 (spectrin repeat containing nuclear envelope protein 1)","TNF reporter robust z-score":-0.7}
{"gene":"CPEB3 (cytoplasmic polyadenylation element binding protein 3)","TNF reporter robust z-score":1.44}
{"gene":"CPEB3 (cytoplasmic polyadenylation element binding protein 3)","TNF reporter robust z-score":0.42}
{"gene":"CPEB3 (cytoplasmic polyadenylation element binding protein 3)","TNF reporter robust z-score":-0.19}
{"gene":"CPEB3 (cytoplasmic polyadenylation element binding protein 3)","TNF reporter robust z-score":"3.01 (active)"}
{"gene":"BCAS2 (BCAS2 pre-mRNA processing factor)","TNF reporter robust z-score":-1.42}
{"gene":"BCAS2 (BCAS2 pre-mRNA processing factor)","TNF reporter robust z-score":-0.77}
{"gene":"BCAS2 (BCAS2 pre-mRNA processing factor)","TNF reporter robust z-score":-0.73}
{"gene":"BCAS2 (BCAS2 pre-mRNA processing factor)","TNF reporter robust z-score":-0.15}
{"gene":"ELF4 (E74 like ETS transcription factor 4)","TNF reporter robust z-score":-1.41}
{"gene":"ELF4 (E74 like ETS transcription factor 4)","TNF reporter robust z-score":"-1.68 (active)"}
{"gene":"ELF4 (E74 like ETS transcription factor 4)","TNF reporter robust z-score":-0.82}
{"gene":"ELF4 (E74 like ETS transcription factor 4)","TNF reporter robust z-score":-0.92}
{"gene":"OR10C1 (olfactory receptor family 10 subfamily C member 1)","TNF reporter robust z-score":-0.14}
{"gene":"OR10C1 (olfactory receptor family 10 subfamily C member 1)","TNF reporter robust z-score":0.91}
{"gene":"OR10C1 (olfactory receptor family 10 subfamily C member 1)","TNF reporter robust z-score":1.11}
{"gene":"OR10C1 (olfactory receptor family 10 subfamily C member 1)","TNF reporter robust z-score":0.2}
{"gene":"VKORC1 (vitamin K epoxide reductase complex subunit 1)","TNF reporter robust z-score":-0.5}
{"gene":"VKORC1 (vitamin K epoxide reductase complex subunit 1)","TNF reporter robust z-score":1.95}
{"gene":"VKORC1 (vitamin K epoxide reductase complex subunit 1)","TNF reporter robust z-score":0.43}
{"gene":"VKORC1 (vitamin K epoxide reductase complex subunit 1)","TNF reporter robust z-score":"3.98 (active)"}
{"gene":"SLC30A9","TNF reporter robust z-score":-0.65}
{"gene":"SLC30A9","TNF reporter robust z-score":-0.05}
{"gene":"SLC30A9","TNF reporter robust z-score":-0.88}
{"gene":"SLC30A9","TNF reporter robust z-score":-0.76}
{"gene":"C3orf18 (chromosome 3 open reading frame 18)","TNF reporter robust z-score":-1.23}
{"gene":"C3orf18 (chromosome 3 open reading frame 18)","TNF reporter robust z-score":-1.02}
{"gene":"C3orf18 (chromosome 3 open reading frame 18)","TNF reporter robust z-score":-1.11}
{"gene":"C3orf18 (chromosome 3 open reading frame 18)","TNF reporter robust z-score":-1.13}
{"gene":"HSPD1 (heat shock protein family D (Hsp60) member 1)","TNF reporter robust z-score":0}
{"gene":"HSPD1 (heat shock protein family D (Hsp60) member 1)","TNF reporter robust z-score":0.08}
{"gene":"HSPD1 (heat shock protein family D (Hsp60) member 1)","TNF reporter robust z-score":-1.15}
{"gene":"HSPD1 (heat shock protein family D (Hsp60) member 1)","TNF reporter robust z-score":-0.53}
{"gene":"UQCRC2 (ubiquinol-cytochrome c reductase core protein 2)","TNF reporter robust z-score":-0.45}
{"gene":"UQCRC2 (ubiquinol-cytochrome c reductase core protein 2)","TNF reporter robust z-score":0.56}
{"gene":"UQCRC2 (ubiquinol-cytochrome c reductase core protein 2)","TNF reporter robust z-score":-0.92}
{"gene":"UQCRC2 (ubiquinol-cytochrome c reductase core protein 2)","TNF reporter robust z-score":0.59}
{"gene":"CCDC69 (coiled-coil domain containing 69)","TNF reporter robust z-score":0.26}
{"gene":"CCDC69 (coiled-coil domain containing 69)","TNF reporter robust z-score":0.37}
{"gene":"CCDC69 (coiled-coil domain containing 69)","TNF reporter robust z-score":-0.35}
{"gene":"CCDC69 (coiled-coil domain containing 69)","TNF reporter robust z-score":0.77}
{"gene":"OR56B4 (olfactory receptor family 56 subfamily B member 4)","TNF reporter robust z-score":-0.17}
{"gene":"OR56B4 (olfactory receptor family 56 subfamily B member 4)","TNF reporter robust z-score":-0.31}
{"gene":"OR56B4 (olfactory receptor family 56 subfamily B member 4)","TNF reporter robust z-score":-0.55}
{"gene":"OR56B4 (olfactory receptor family 56 subfamily B member 4)","TNF reporter robust z-score":-0.21}
{"gene":"IZUMO1 (izumo sperm-oocyte fusion 1)","TNF reporter robust z-score":0.11}
{"gene":"IZUMO1 (izumo sperm-oocyte fusion 1)","TNF reporter robust z-score":1.43}
{"gene":"IZUMO1 (izumo sperm-oocyte fusion 1)","TNF reporter robust z-score":-0.06}
{"gene":"IZUMO1 (izumo sperm-oocyte fusion 1)","TNF reporter robust z-score":0.46}

Laid out differently: results already given.
gene	TNF reporter robust z-score
CCDC69 (coiled-coil domain containing 69)	-0.35
CCDC69 (coiled-coil domain containing 69)	0.77
OR56B4 (olfactory receptor family 56 subfamily B member 4)	-0.17
